Source: PubChem BioAssay AID504786 (Drosophila RNAi Screening Center, 2011)

Test: 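Fly genes required for HIF-dependent transcription when hypoxia is mimicked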 (primary screen)
Cells: Drosophila S2 cells with a stable HIF luciferase reporter
Reagents: long dsRNA against Drosophila genes, about 0.2 µg dsRNA per well of a 384-well plate
Timing: three days of knock-down, then 20 h of DFO before reading
Conditions: desferrioxamine (DFO) at 100 µM, an iron chelator that mimics hypoxia, for 20 h
Measurement: 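Firefly luciferase driven by the mouse ldh-a hypoxia-response element, measured after 20 h of 100 µM DFO; z-scores per plate, higher means more signal lost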
Reading the numbers: z-score: higher = stronger loss of HIF reporter signal
The screen tested about 21,000 reagents; shown is a random part of those that have a named target and a result. 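Primary screen; positive scores mean lost reporter signal, so the sign may be inverted from the usual convention.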 A plus sign joins genes that one reagent is predicted to hit.

| Target gene | dsRNA | z-score, replicate 1 | z-score, replicate 2 | z-score, replicate 3 | z-score, replicate 4 |
| --- | --- | --- | --- | --- | --- |
| Lim3 (GeneID 35184) | DRSC02475 | -0.2 | -0.9 | – | – |
| Lim3 (GeneID 35184) | DRSC03363 | 0.2 | 1.6 | – | – |
| Set8 (GeneID 41743) | DRSC15473 | -0.4 | -0.6 | – | – |
| Irbp18 (GeneID 39243) | DRSC10612 | 1.2 | 0.9 | – | – |
| rdo (GeneID 35077) | DRSC02452 | 0.3 | 1.1 | – | – |
| Rbcn-3A (GeneID 31557) | DRSC18314 | -0.2 | -0.3 | – | – |
| Alp11 (GeneID 32496) | DRSC20080 | -0.3 | -0.2 | – | – |
| Nrk (GeneID 36445) | DRSC07480 | -0.3 | -0.3 | – | – |
| Dp (GeneID 36461) | DRSC07402 | 1.9 | 1.7 | – | – |
| Spn43Aa (GeneID 45041) | DRSC06117 | -0.3 | 0.1 | – | – |
| Nnf1a (GeneID 37325) | DRSC06394 | -0.3 | 0.1 | – | – |
| robls54B (GeneID 5740248) | DRSC05660 | -0.4 | -0.1 | – | – |
| CG11356 (GeneID 32178) | DRSC19401 | -0.3 | 0 | – | – |
| Hsp68 (GeneID 42852) | DRSC16712 | -0.3 | -0.4 | – | – |
| dlt (GeneID 46719) | DRSC08705 | 0 | 0.1 | – | – |
| CHES-1-like (GeneID 31678) | DRSC18447 | -0.3 | -0.2 | – | – |
| Npl4 (GeneID 43091) | DRSC15615 | -0.3 | -0.6 | – | – |
| Npl4 (GeneID 43091) | DRSC15616 | 0.3 | 1.1 | – | – |
| tei (GeneID 36521) | DRSC07616 | 0.1 | -0.2 | – | – |
| Gdi (GeneID 34264) | DRSC03330 | -0.5 | -0.9 | – | – |
| Gyc89Da (GeneID 42001) | DRSC15008 | -0.3 | -0.1 | – | – |
| CG31019 (GeneID 318558) | DRSC13994 | -0.2 | 0.6 | – | – |
| muskelin (GeneID 36386) | DRSC07273 | -0.2 | -0.2 | – | – |
| phr (GeneID 35735) | DRSC07662 | 0 | 0.2 | – | – |
| Kat60 (GeneID 53566) | DRSC12378 | -0.2 | 0.3 | – | – |
| Charon (GeneID 33303) | DRSC00679 | -0.1 | 0.6 | – | – |
| nero (GeneID 43740) | DRSC15432 | 0.7 | 0.7 | – | – |
| CG1317 (GeneID 38300) | DRSC08305 | -0.2 | -0.1 | – | – |

In a second layout: 11 of the entries above
Target gene,dsRNA,"z-score, replicate 1","z-score, replicate 2","z-score, replicate 3","z-score, replicate 4"
Npl4 (GeneID 43091),DRSC15616,0.3,1.1,,
tei (GeneID 36521),DRSC07616,0.1,-0.2,,
Gdi (GeneID 34264),DRSC03330,-0.5,-0.9,,
Gyc89Da (GeneID 42001),DRSC15008,-0.3,-0.1,,
CG31019 (GeneID 318558),DRSC13994,-0.2,0.6,,
muskelin (GeneID 36386),DRSC07273,-0.2,-0.2,,
phr (GeneID 35735),DRSC07662,0,0.2,,
Kat60 (GeneID 53566),DRSC12378,-0.2,0.3,,
Charon (GeneID 33303),DRSC00679,-0.1,0.6,,
nero (GeneID 43740),DRSC15432,0.7,0.7,,
CG1317 (GeneID 38300),DRSC08305,-0.2,-0.1,,

Further entries:
| Target gene | dsRNA | z-score, replicate 1 | z-score, replicate 2 | z-score, replicate 3 | z-score, replicate 4 |
| --- | --- | --- | --- | --- | --- |
| Mnat9 (GeneID 43726) | DRSC14325 | -0.3 | 0 | – | – |
| Cyp6d5 (GeneID 41706) | DRSC16634 | -0.3 | -0.3 | – | – |
| CG17600 (GeneID 33141) | DRSC20638 | -0.1 | -0.3 | – | – |
| CG17600 (GeneID 33141) | DRSC20640 | 0.2 | -0.3 | – | – |
| CG18508 (GeneID 59253) | DRSC18155 | -0.2 | -0.3 | – | – |
| Pos (GeneID 43762) | DRSC15415 | -0.3 | -0.3 | – | – |
| zip (GeneID 38001) | DRSC04725 | -0.4 | -0.4 | -0.5 | -0.3 |
| Tnks (GeneID 43095) | DRSC14154 | 0.1 | 1.4 | – | – |
| gig (GeneID 40201) | DRSC11351 | -0.6 | -1.1 | – | – |
| Clbn (GeneID 43018) | DRSC14404 | -0.2 | 0 | – | – |
| Tsp42Ec (GeneID 35612) | DRSC06192 | -0.3 | -0.3 | – | – |
| CG11560 (GeneID 39376) | DRSC09843 | -0.4 | -0.3 | – | – |
| Ant2 (GeneID 32008) | DRSC19330 | -0.1 | -0.4 | – | – |
| Ccp84Aa (GeneID 40825) | DRSC12586 | -0.4 | -0.3 | – | – |
| CG2898 (GeneID 31966) | DRSC18238 | -0.1 | 0.1 | – | – |
| Tbcb (GeneID 37244) | DRSC06067 | -0.5 | -1.1 | – | – |
| Ppt1 (GeneID 31805) | DRSC17806 | -0.3 | -0.2 | – | – |
| Bulli (GeneID 38734) | DRSC10974 | -0.2 | -0.8 | – | – |
| CG13625 (GeneID 42931) | DRSC14627 | 0 | 1.1 | – | – |
| CG18635 (GeneID 37031) | DRSC06780 | -0.9 | -0.5 | – | – |
| CG9826 (GeneID 37625) | DRSC04570 | -0.4 | -0.3 | – | – |
| Ak2 (GeneID 37834) | DRSC04043 | 0 | -0.7 | – | – |
| Cpr62Ba (GeneID 38239) | DRSC08403 | -0.3 | -0.6 | – | – |
| Efhc1.2 (GeneID 37284) | DRSC06027 | -0.1 | 0 | – | – |
| Hmgcl (GeneID 33978) | DRSC02051 | -0.1 | 0.1 | – | – |
| CG14718 (GeneID 41413) | DRSC14941 | -0.4 | -0.6 | – | – |
| GATAe (GeneID 41945) | DRSC14223 | -0.4 | 0.4 | – | – |
| PGRP-LD + Pmi | DRSC10512 | -0.1 | 0.4 | – | – |
| PGRP-LD + Pmi | DRSC10513 | -0.4 | -0.7 | – | – |
| CG15082 (GeneID 37173) | DRSC06513 | 0 | 0.2 | – | – |
| dpr20 (GeneID 38101) | DRSC08265 | -0.3 | 0 | – | – |
| CG1951 (GeneID 43423) | DRSC15403 | -0.3 | 0 | – | – |
| CG13369 (GeneID 31007) | DRSC18481 | -0.3 | -0.2 | – | – |
| CG34112 (GeneID 4379842) | DRSC12235 | -0.3 | -0.8 | – | – |
| SdhC (GeneID 41340) | DRSC16088 | -0.3 | -0.6 | – | – |
| Coprox (GeneID 44701) | DRSC01996 | 0.8 | -0.4 | – | – |
| Cyp6a22 (GeneID 49847) | DRSC07382 | -0.2 | 0.1 | – | – |
| CG11267 (GeneID 39476) | DRSC09833 | -0.3 | -0.3 | – | – |
| ND-B15 (GeneID 36640) | DRSC06199 | 0 | -0.4 | – | – |
| CG11076 (GeneID 43830) | DRSC17197 | -0.2 | -0.1 | – | – |
| Gr58c (GeneID 37501) | DRSC04136 | 0 | -0.2 | – | – |
| amrt (GeneID 32342) | DRSC19378 | 0 | 0.4 | – | – |
| Tsp42Ek (GeneID 35621) | DRSC06187 | -0.3 | -0.4 | – | – |
| tmod (GeneID 43633) | DRSC13993 | -0.4 | -0.2 | – | – |
| tmod (GeneID 43633) | DRSC14314 | 0.5 | 0.1 | – | – |
| tmod (GeneID 43633) | DRSC15076 | -0.6 | -0.4 | – | – |
| tmod (GeneID 43633) | DRSC17062 | -0.3 | -0.3 | – | – |
| CG31321 (GeneID 318681) | DRSC13028 | 0.5 | -0.1 | – | – |
| Rdh (GeneID 2769007) | DRSC08063 | -0.2 | 0.3 | – | – |
| Rdh (GeneID 2769007) | DRSC08434 | 0.8 | 1.4 | 5 | 2.5 |
| djl (GeneID 40839) | DRSC12578 | -0.1 | 0.2 | – | – |
| slf (GeneID 33678) | DRSC00583 | -0.2 | 0.6 | – | – |
| udt (GeneID 42809) | DRSC14214 | -0.2 | 0.4 | – | – |
| haf (GeneID 33339) | DRSC00381 | -0.3 | -0.1 | – | – |
| Gr28a (GeneID 117348) | DRSC02290 | -0.3 | -0.4 | – | – |
